From paper PMC4028237, “GmFT2a and GmFT5a Redundantly and Differentially Regulate Flowering through Interaction with and Upregulation of the bZIP Transcription Factor GmFDL19 in Soybean”
The exact form of at least one protein or probe is not confirmed. At least one verdict was read from the data and is not stated in words by the source. Where a protein sequence is shown, tags need not be part of it.

Biological target: T1, GmFDL19 (Glycine max) (UniProt I1N8K2)
T1 sequence (looked up, limits assumed): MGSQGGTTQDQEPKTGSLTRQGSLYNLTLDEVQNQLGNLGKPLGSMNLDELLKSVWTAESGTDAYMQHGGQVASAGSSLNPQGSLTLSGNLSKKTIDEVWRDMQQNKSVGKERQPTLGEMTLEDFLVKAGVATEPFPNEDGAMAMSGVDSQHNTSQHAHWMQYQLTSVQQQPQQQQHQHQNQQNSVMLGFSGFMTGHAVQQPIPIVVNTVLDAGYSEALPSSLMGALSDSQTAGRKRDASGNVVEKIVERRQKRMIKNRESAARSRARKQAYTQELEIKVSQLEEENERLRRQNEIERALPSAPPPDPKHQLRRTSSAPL
Experiment: EMSA
Conditions: Invitrogen EMSA kit E33075, 6% native TBE polyacrylamide gel, 200 V 45 min, SYBR Green stain; binding buffer, pH and temperature not stated; recombinant …; protein details: His (pET29b, NdeI/SalI); label: none (SYBR Green stain)

Binding result, binds:
AACACCTCCTACGTCCATGATATTGCAGCGACCTAAAAAA (double strand) [GmAP1aP-911 A/C box]
GATCGACAGCGCAACGTTAAGAAAACTACCCCGGTTTTTC (double strand) [GmAP1aP-2703 T-box]
CGCGTGTACGCGTACCACGTATCCCAATTCCATAAGAAAT (double strand) [GmAP1aP-1876 G/A box]
GACCTAAAAAACAAACGTCGGAAGACGAACTTGTAGAAAG (double strand) [GmAP1aP-944 T/C box]
CCAAAAAATCAAACGTTTAGGTAAAAACCCAAATGATCTA (double strand) [GmAP1aP-732 T-box]
TCGTGGGTCGTGGCGCCGTCAACGTAAGGATGCACGTAAT (double strand) [GmAP1aP-2471 T/A box]
GGCGCCGTCAACGTAAGGATGCACGTAATGTTCTGGTTCA (double strand) [GmAP1aP-2483 G/A box]
